Data as given in PubChem BioAssay AID1259424 (University of Nebraska Medical Center, 2018).
The whole screen tested about 14,000 reagents; shown is a part drawn at random. 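Higher correlation or smaller distance means closer resemblance to KSR1 loss; control wells, including KSR1 knockdowns, recur on many plates.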 Further read-outs or replicates are left out here. Not stated in the record: the time to read-out.

Aim: 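Find knockdowns that reproduce the expression shifts seen after KSR1 loss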 (primary screen)
Cells: human HCT116 colon cancer cells
Knock-down reagent: siRNA pool against human genes, 50 nM
Read-out: 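Six signature mRNAs by branched-DNA multiplex assay, scaled to two housekeeping genes and non-targeting median, log2; matched to mean KSR1 knockdown profile by Pearson correlation and euclidean distance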
Direction: mean correlation with KSR1 profile: higher = expression change more like KSR1 knockdown

What did the screen give for LINC01749 (long independently transcribed non-coding RNA 1749)?
mean correlation with KSR1 profile: -0.59

How did the screen score HOXA9 (homeobox A9)?
mean correlation with KSR1 profile: 0.465

For CBR3 (carbonyl reductase 3), how do the results read?
mean correlation with KSR1 profile: -0.636

What did the screen give for ZNF90 (zinc finger protein 90)?
mean correlation with KSR1 profile: 0.229

How did the screen score NINJ1 (ninjurin 1)?
mean correlation with KSR1 profile: -0.0354

With MPP4 (MAGUK p55 scaffold protein 4), what does the deposit list?
mean correlation with KSR1 profile: -0.433

For GCM2 (GCM transcription factor 2), what does the deposit list?
mean correlation with KSR1 profile: 0.469

For NCLN (nicalin), what does the deposit list?
mean correlation with KSR1 profile: 0.426

For PRB3 (proline rich protein BstNI subfamily 3), what was measured?
mean correlation with KSR1 profile: 0.0576

For BTF3P11 (basic transcription factor 3 pseudogene 11), what was measured?
mean correlation with KSR1 profile: -0.0779

With NFIA (nuclear factor I A), what does the deposit list?
mean correlation with KSR1 profile: -0.00622

Which result is listed for CD8B (CD8 subunit beta)?
mean correlation with KSR1 profile: 0.0787

For CNKSR2 (connector enhancer of kinase suppressor of Ras 2), what does the deposit list?
mean correlation with KSR1 profile: -0.318

Which result is listed for CBX6 (chromobox 6)?
mean correlation with KSR1 profile: -0.386

Which result is listed for LETM1?
mean correlation with KSR1 profile: -0.339

What is on record for RHPN2 (rhophilin Rho GTPase binding protein 2)?
mean correlation with KSR1 profile: 0.256

For CD14 (CD14 molecule), how do the results read?
mean correlation with KSR1 profile: -0.37

How did the screen score VAV3 (vav guanine nucleotide exchange factor 3)?
mean correlation with KSR1 profile: -0.254

For BAGE2 (BAGE family member 2 (pseudogene)), what does the deposit list?
mean correlation with KSR1 profile: -0.0528

How did the screen score BCL7A (BAF chromatin remodeling complex subunit BCL7A)?
mean correlation with KSR1 profile: 0.638

For SPTA1 (spectrin alpha, erythrocytic 1), what was measured?
mean correlation with KSR1 profile: -0.092

With HYAL4 (hyaluronidase 4), what was measured?
mean correlation with KSR1 profile: -0.445

For ZNF608 (zinc finger protein 608), how do the results read?
mean correlation with KSR1 profile: -0.44

How did the screen score CERS4 (ceramide synthase 4)?
mean correlation with KSR1 profile: -0.157

With CLTA (clathrin light chain A), what was measured?
mean correlation with KSR1 profile: 0.28

Which result is listed for AIMP2?
mean correlation with KSR1 profile: -0.043

For ATG2B (autophagy related 2B), how do the results read?
mean correlation with KSR1 profile: -0.317

With CPB1 (carboxypeptidase B1), how do the results read?
mean correlation with KSR1 profile: -0.803
